Values of other authors, collected in US10507199B2, “Molecules in the tryptophan-5-hydroxytryptophan-serotonin-NAS-melatonin/6-hydroxymelatonin sulfate-melatonin receptor 1A pathway in neurological diseases” (priority 2017, dated 2019).
The name of at least one read-out is uncertain.

Conditions: cited from earlier work

COc1ccc2[nH]cc(CCNC(C)=O)c2c1 [melatonin, N-acetyl-5-methoxytryptamine]
blood-brain barrier permeability: excellent
